Measured values: PubChem BioAssay AID504467 (National Center for Advancing Translational Sciences (NCATS), 2011)
Among all 330,000 compounds or so, about 7,700 (2.3%) were called active. Inconclusive results, whose numbers are uncertain, are shown with a selection of clear calls. Calls come from the whole dose curve; as a rule, active = well fitted inhibition curve with a large enough effect; inconclusive = small, poorly fitted or top-dose-only effect, or effect the other way; inactive = flat fitted curve, though single readings scatter. Where the call is inconclusive, the potency comes from a doubtful curve fit.

assay: qHTS screen for small molecules that inhibit ELG1-dependent DNA repair in human embryonic kidney (HEK293T) cells expressing luciferase-tagged ELG1; settings: HEK293T ELG1-luciferase reporter, luminescence, 16 h, DNA damage induced by 5-fluorouridine; series mostly up to 46.1 µM; note: nearly all actives have a fitted effect of over 55% in size
Method in brief: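 Quantitative HTS, concentration-response format. 2,000 cells/well co-treated with 5-fluorouridine and compound, 16 hr in 5% CO2 at 37 °C; ONE-Glo luminescence read after 30 min.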
Potency is the fitted concentration of half-maximal effect.

Row | Structure (SMILES) | Potency
1 | COc1ccc(-c2cc(C(=O)N/N=C/c3ccc4c(c3)OCO4)c3ccccc3n2)c(OC)c1 | inconclusive: 8.2 µM [inhibitor, single point]
2 | O=C(CNC(=O)C1(c2ccccc2)CC1)Nc1ccc(F)c(F)c1 | inactive
3 | COC(=O)c1cccc(NC(=O)c2ccco2)c1 | inconclusive: 29.1 µM [activator, partial curve, poor fit]
4 | O=C(NCc1ccccc1Cl)C1CCN(c2ncnc3c2nc2n3CCCCC2)CC1 | inconclusive: 16.4 µM [inhibitor, partial curve]
5 | COc1ccc2nc3cc(Cl)ccc3c(Nc3cc(CN4CCCC4)c(O)c(CN4CCCC4)c3)c2n1 | inconclusive: 25.9 µM [inhibitor, single point]
6 | COC(=O)c1nc(N)sc1C | inconclusive: 32.6 µM [activator, partial curve, poor fit]
7 | CC(=O)Nc1cccc(/C(C)=N/NC(N)=S)c1 | inactive
8 | O=C(NCCc1cccnc1)C1CCC(=O)N(CCc2cccc(F)c2)C1 (stereo not drawn) | inactive
9 | O=C(c1ccc(Cl)c(S(=O)(=O)N2CCOCC2)c1)N1CCN(Cc2ccccc2)CC1 | inactive
10 | Clc1cc(NCc2cccs2)ccc1N1CCOCC1 | inconclusive: 20.6 µM [activator, partial curve]
11 | Cn1cnnc1SCC(=O)Nc1cccc(C(=O)O)c1 | inactive
12 | O=C(Nc1cnn(C23CC4CC(CC(C4)C2)C3)c1)c1cc(-c2ccccc2)on1 | inactive
13 | Cc1cccc(NC2=C(NC(=O)c3ccccc3)C(=O)c3ccccc3C2=O)c1 | inconclusive: 20.6 µM [inhibitor, partial curve]
14 | O=C1CC(c2ccsc2)Sc2ccccc2N1 (stereo not drawn) | inactive
15 | CSc1c(C#N)c(N)c(C#N)c2c1COC(C)(C)C2 | inconclusive: 20.6 µM [activator, single point]
16 | CCCC(=O)Nc1ccc(C(N)=O)cc1 | inconclusive: 14.6 µM [activator, partial curve, poor fit]
17 | COc1ccc(-c2nc(S(=O)(=O)c3ccccc3)c(NCCCN3CCOCC3)o2)cc1 | inconclusive: 4.11 µM [activator, single point]
18 | COc1ccccc1C(=O)/C=C/c1ccc(N2CCCCC2)c([N+](=O)[O-])c1 | inconclusive: 29.1 µM [inhibitor, single point]
19 | Cc1cc(C(=O)COC(=O)c2n[nH]c(=O)c3ccccc23)c(C)n1C(C)C | inconclusive: 11.2 µM [activator, partial curve]
20 | Cc1cccc(N2CCN(C(=O)c3ccc(CNc4c(N5CCC(C)CC5)c(=O)c4=O)cc3)CC2C)c1 (stereo not drawn) | inconclusive: 18.3 µM [inhibitor, single point]
21 | COc1ccc(S(=O)(=O)N2CCN(CC3CC=CCC3)CC2)cc1 (stereo not drawn) | inconclusive: 0.58 µM [inhibitor, partial curve, poor fit]
22 | CCOC(=O)N1CCC(Nc2ncnc3c2cnn3-c2ccc(Cl)cc2)CC1 | inconclusive: 10.3 µM [activator, partial curve, poor fit]
23 | C/C(Cc1ccccc1)=N\NC(=O)CNC(=O)c1ccccc1F | inconclusive: 16.4 µM [activator, single point]

Row | Structure (SMILES) | Potency
24 | COc1ccc(/C=N/c2nc3ccccc3n2C)cc1OC | inactive
25 | CCCCOC(=O)c1ccc(NC(=O)c2ccccc2OC)cc1 | inconclusive: 29.1 µM [inhibitor, single point]
26 | CCOC(=O)c1c(-c2ccccc2)oc2cc(Br)c(O)c(C=O)c12 | inconclusive: 18.3 µM [inhibitor, single point]
27 | Cn1c(CCN2CCCCCC2)nc2cc(NC(=O)Nc3ccccc3)ccc21 | inconclusive: 11.6 µM [activator, partial curve]
28 | Cc1ccc(OCc2cc(C(=O)N3CCN(C4CCCC4)CC3)no2)cc1C | inconclusive: 13 µM [activator, partial curve, poor fit]
29 | O=C(Nc1ccc(S(=O)(=O)N2CCCC2)cc1)c1cccs1 | inactive
30 | CCOC(=O)c1cc(C)sc1NC(=O)C(c1ccccc1)c1ccccc1 | inactive
31 | O=C(NNC(=S)Nc1ccc(F)cc1)c1ccccc1OC(F)F | inactive
32 | Cc1cccc(N2CCN(C(=O)C3CCN(S(=O)(=O)N4CCOCC4)CC3)CC2)c1C | active: 18.3 µM
33 | COc1cc(C(C)=O)ccc1COc1ccc(C(=O)OCC(N)=O)cc1OC | inconclusive: 16.4 µM [inhibitor, single point]
34 | O=C(NC1CCCCCC1)C(=S)NCc1ccccc1 | inconclusive: 23.1 µM [activator, partial curve]
35 | COc1ccc(CNc2ccccc2)cc1Br | inconclusive: 29.1 µM [activator, single point]
36 | CC(=O)Nc1sc2c(c1C(N)=O)CCCC2 | inactive
37 | Cc1cccc2cc(CN(Cc3ccccc3)C(=O)c3cccc(F)c3)c(Cl)nc12 | inactive
38 | CC(=O)c1cccc(OCc2cc(C(=O)N3C[C@@H](C)O[C@@H](C)C3)no2)c1 | inconclusive: 20.6 µM [activator, single point]
39 | CCCCCCSc1ccc(-c2nc3ccc(C)cn3c2NCc2ccccc2)cc1 | inconclusive: 2 µM [inhibitor, partial curve, poor fit]
40 | O=C(Oc1ccc2c(c1)C(=O)c1ccccc1CO2)c1ccccc1 | inconclusive: 29.1 µM [activator, single point]
41 | O=S1CCCSC1c1cccnc1 (stereo not drawn) | inconclusive: 32.6 µM [activator, partial curve, poor fit]
42 | Cc1csc2c(SCC(=O)NNC(=O)C(Cl)Cl)ncnc12 | inactive
43 | C/C(=N\NC(=O)COc1ccc(C)cc1C(C)C)c1cc2ccccc2o1 | inconclusive: 18.4 µM [activator, partial curve]
44 | COc1ccc(NC(=O)CN(C)C(=O)C(Sc2ccccc2)c2ccccc2)cc1 (stereo not drawn) | inconclusive: 25.1 µM [inhibitor, single point]
45 | Fc1ccc2[nH]c3c(c2c1)CN(C(=S)NCc1ccccc1)CC3 | inconclusive: 18.3 µM [inhibitor, partial curve, poor fit]
46 | CCOC(=O)CNc1nc(C(C)(C)C)nc2c1nnn2Cc1ccccc1Cl | inconclusive: 23.1 µM [inhibitor, single point]

A portion taken from the entries so far, for reference:
Row | Structure (SMILES) | Potency
40 | O=C(Oc1ccc2c(c1)C(=O)c1ccccc1CO2)c1ccccc1 | inconclusive: 29.1 µM [activator, single point]
41 | O=S1CCCSC1c1cccnc1 (stereo not drawn) | inconclusive: 32.6 µM [activator, partial curve, poor fit]
42 | Cc1csc2c(SCC(=O)NNC(=O)C(Cl)Cl)ncnc12 | inactive
43 | C/C(=N\NC(=O)COc1ccc(C)cc1C(C)C)c1cc2ccccc2o1 | inconclusive: 18.4 µM [activator, partial curve]
44 | COc1ccc(NC(=O)CN(C)C(=O)C(Sc2ccccc2)c2ccccc2)cc1 (stereo not drawn) | inconclusive: 25.1 µM [inhibitor, single point]
45 | Fc1ccc2[nH]c3c(c2c1)CN(C(=S)NCc1ccccc1)CC3 | inconclusive: 18.3 µM [inhibitor, partial curve, poor fit]

Further results follow.

Row | Structure (SMILES) | Potency
47 | O=c1c2[nH]c3ccc(F)cc3c2ncn1CCN1CCOCC1 | inconclusive: 23.1 µM [activator, partial curve, poor fit]
48 | O=C(c1cc(-c2cccs2)nc2ccccc12)N1CCN(S(=O)(=O)c2cccc(F)c2)CC1 | inconclusive: 20.6 µM [inhibitor, single point]
49 | COc1ccc(CN2CCN(C(=O)c3cc(C4CC4)nn3-c3ccccc3)CC2)cc1F | inconclusive: 18.3 µM [inhibitor, partial curve]
50 | CCOC(=O)N1CCN(S(=O)(=O)c2ccc(F)c(C(=O)Nc3cc(C)cc(C)c3)c2)CC1 | inconclusive: 20.6 µM [inhibitor, partial curve, poor fit]
51 | C/C(=N\NC(=O)c1ccc(-c2ccccc2)cc1)c1ccco1 | inconclusive: 16.4 µM [activator, partial curve]
52 | Cc1nnc(NC(=O)CSc2nnc3ncccn23)s1 | inconclusive: 18.3 µM [activator, partial curve, poor fit]
53 | O=C(CCCOc1ccccc1)Nc1nc2ccccc2[nH]1 | inconclusive: 16.4 µM [activator, partial curve]
54 | COc1cccc(CNC(=O)CCc2ccc(OC)c(OC)c2)c1 | inactive
55 | O=S(=O)(c1ccc(Br)s1)N1CCN(c2ncccn2)CC1 | inconclusive: 3.66 µM [inhibitor, full curve]
56 | Cn1nc(-c2ccc(OCC(=O)NCC3CCCO3)cc2)c2ccccc2c1=O (stereo not drawn) | inconclusive: 10.3 µM [inhibitor, partial curve, poor fit]
57 | Cc1c(C(=O)N(C)C2CCCCC2)sc2ncnc(N3CCN(c4ccccc4F)CC3)c12 | inconclusive: 32.6 µM [inhibitor, single point]
58 | CC1CN(C(=O)CCC(=O)NCc2ccc(Cl)cc2)c2ccccc2O1 (stereo not drawn) | inactive
59 | O=C(Nc1cccc([N+](=O)[O-])c1)C1C2CCCCC21 (stereo not drawn) | inactive
60 | C[C@@]12C(=O)N(CCc3c[nH]c4ccccc34)CC(=O)N1[C@H]1c3ccccc3OC[C@@H]1[C@@H]2c1ccccc1 | inconclusive: 14.6 µM [inhibitor, partial curve]
61 | O=C(C1CCN(Cc2ccc(Cl)cc2)CC1)N1CCN(Cc2ccc3c(c2)OCO3)CC1 | inconclusive: 4.61 µM [inhibitor, full curve]
62 | CC(C(=O)Nc1ccccc1C#N)N1C(=O)NC2(CCCCCC2)C1=O (stereo not drawn) | inconclusive: 25.9 µM [activator, partial curve, poor fit]
63 | Cc1ccc(-c2noc(COc3ccccc3C)n2)cc1 | inconclusive: 18.4 µM [activator, partial curve]
64 | CCOC(=O)CN1N=C(c2ccc(Cl)cc2)CCC1=O | inconclusive: 6.51 µM [activator, partial curve, poor fit]
65 | COc1ccc(-c2sc3ccc(N4CCOCC4)cc3c2C#CCCO)cc1 | inconclusive: 23.1 µM [inhibitor, partial curve]
66 | COc1ccccc1C1CCN(C(=O)c2ccc(C(C)(C)C)cc2)CC1 | inconclusive: 29.1 µM [inhibitor, single point]
67 | COc1ccc(OC)c(S(=O)(=O)N/N=C\c2c[nH]c3ccccc23)c1 | inactive
68 | CC(C)Cc1nnc(NC(=O)CSc2nc(-c3ccccc3)cc(=O)[nH]2)s1 | inconclusive: 29.1 µM [inhibitor, single point]
